Measurements: article PMC8121430
These are yes or no findings as the source states them, for the method shown. Binding seen in cells or lysates may run through a third protein. Binding can be weak; no strength is given. Where a sequence is shown, tags or fusion partners need not be part of it.

Target: T1, HA-tagged Vangl2 (wild type, full length) (UniProt Q91ZD4)
T1 sequence: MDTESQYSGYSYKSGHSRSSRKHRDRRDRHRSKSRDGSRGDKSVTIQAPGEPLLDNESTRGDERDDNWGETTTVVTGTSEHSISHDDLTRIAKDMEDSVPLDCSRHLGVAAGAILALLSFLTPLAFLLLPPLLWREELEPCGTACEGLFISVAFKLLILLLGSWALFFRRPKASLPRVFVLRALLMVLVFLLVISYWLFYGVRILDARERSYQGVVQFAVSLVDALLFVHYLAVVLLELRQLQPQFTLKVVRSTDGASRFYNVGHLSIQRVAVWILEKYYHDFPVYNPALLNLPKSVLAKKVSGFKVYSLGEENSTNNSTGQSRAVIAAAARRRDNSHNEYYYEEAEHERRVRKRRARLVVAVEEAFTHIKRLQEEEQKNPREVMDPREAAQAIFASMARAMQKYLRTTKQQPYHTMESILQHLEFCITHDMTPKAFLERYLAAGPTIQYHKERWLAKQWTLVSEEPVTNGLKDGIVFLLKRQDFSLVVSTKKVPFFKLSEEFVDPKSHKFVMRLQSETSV
Test: co-IP; overexpressed tagged proteins in HEK293T cells (Flag-tagged KBTBD7 forms, KBTBD6, CUL3; HA-tagged Vangl2 or CUL3); Vangl2-KBTBD7 also tested with or without Wnt5a and the CK1 inhibitor (fig. S5A)

binding	Substance
binds	Flag-tagged KBTBD7-Kelch domain (human (cDNA from HEK293T cells)) (domain or fragment)
binds weakly	Flag-tagged KBTBD7-∆Kelch (human (cDNA from HEK293T cells)) (domain or fragment)
